# Source: publication PMC7706265
# Sequences of proteins named here, by UniProt entry; tags and fusion partners are left off. A change or cut given only in a name is not applied to a line headed by its entry.
# UniProt A2AWL7: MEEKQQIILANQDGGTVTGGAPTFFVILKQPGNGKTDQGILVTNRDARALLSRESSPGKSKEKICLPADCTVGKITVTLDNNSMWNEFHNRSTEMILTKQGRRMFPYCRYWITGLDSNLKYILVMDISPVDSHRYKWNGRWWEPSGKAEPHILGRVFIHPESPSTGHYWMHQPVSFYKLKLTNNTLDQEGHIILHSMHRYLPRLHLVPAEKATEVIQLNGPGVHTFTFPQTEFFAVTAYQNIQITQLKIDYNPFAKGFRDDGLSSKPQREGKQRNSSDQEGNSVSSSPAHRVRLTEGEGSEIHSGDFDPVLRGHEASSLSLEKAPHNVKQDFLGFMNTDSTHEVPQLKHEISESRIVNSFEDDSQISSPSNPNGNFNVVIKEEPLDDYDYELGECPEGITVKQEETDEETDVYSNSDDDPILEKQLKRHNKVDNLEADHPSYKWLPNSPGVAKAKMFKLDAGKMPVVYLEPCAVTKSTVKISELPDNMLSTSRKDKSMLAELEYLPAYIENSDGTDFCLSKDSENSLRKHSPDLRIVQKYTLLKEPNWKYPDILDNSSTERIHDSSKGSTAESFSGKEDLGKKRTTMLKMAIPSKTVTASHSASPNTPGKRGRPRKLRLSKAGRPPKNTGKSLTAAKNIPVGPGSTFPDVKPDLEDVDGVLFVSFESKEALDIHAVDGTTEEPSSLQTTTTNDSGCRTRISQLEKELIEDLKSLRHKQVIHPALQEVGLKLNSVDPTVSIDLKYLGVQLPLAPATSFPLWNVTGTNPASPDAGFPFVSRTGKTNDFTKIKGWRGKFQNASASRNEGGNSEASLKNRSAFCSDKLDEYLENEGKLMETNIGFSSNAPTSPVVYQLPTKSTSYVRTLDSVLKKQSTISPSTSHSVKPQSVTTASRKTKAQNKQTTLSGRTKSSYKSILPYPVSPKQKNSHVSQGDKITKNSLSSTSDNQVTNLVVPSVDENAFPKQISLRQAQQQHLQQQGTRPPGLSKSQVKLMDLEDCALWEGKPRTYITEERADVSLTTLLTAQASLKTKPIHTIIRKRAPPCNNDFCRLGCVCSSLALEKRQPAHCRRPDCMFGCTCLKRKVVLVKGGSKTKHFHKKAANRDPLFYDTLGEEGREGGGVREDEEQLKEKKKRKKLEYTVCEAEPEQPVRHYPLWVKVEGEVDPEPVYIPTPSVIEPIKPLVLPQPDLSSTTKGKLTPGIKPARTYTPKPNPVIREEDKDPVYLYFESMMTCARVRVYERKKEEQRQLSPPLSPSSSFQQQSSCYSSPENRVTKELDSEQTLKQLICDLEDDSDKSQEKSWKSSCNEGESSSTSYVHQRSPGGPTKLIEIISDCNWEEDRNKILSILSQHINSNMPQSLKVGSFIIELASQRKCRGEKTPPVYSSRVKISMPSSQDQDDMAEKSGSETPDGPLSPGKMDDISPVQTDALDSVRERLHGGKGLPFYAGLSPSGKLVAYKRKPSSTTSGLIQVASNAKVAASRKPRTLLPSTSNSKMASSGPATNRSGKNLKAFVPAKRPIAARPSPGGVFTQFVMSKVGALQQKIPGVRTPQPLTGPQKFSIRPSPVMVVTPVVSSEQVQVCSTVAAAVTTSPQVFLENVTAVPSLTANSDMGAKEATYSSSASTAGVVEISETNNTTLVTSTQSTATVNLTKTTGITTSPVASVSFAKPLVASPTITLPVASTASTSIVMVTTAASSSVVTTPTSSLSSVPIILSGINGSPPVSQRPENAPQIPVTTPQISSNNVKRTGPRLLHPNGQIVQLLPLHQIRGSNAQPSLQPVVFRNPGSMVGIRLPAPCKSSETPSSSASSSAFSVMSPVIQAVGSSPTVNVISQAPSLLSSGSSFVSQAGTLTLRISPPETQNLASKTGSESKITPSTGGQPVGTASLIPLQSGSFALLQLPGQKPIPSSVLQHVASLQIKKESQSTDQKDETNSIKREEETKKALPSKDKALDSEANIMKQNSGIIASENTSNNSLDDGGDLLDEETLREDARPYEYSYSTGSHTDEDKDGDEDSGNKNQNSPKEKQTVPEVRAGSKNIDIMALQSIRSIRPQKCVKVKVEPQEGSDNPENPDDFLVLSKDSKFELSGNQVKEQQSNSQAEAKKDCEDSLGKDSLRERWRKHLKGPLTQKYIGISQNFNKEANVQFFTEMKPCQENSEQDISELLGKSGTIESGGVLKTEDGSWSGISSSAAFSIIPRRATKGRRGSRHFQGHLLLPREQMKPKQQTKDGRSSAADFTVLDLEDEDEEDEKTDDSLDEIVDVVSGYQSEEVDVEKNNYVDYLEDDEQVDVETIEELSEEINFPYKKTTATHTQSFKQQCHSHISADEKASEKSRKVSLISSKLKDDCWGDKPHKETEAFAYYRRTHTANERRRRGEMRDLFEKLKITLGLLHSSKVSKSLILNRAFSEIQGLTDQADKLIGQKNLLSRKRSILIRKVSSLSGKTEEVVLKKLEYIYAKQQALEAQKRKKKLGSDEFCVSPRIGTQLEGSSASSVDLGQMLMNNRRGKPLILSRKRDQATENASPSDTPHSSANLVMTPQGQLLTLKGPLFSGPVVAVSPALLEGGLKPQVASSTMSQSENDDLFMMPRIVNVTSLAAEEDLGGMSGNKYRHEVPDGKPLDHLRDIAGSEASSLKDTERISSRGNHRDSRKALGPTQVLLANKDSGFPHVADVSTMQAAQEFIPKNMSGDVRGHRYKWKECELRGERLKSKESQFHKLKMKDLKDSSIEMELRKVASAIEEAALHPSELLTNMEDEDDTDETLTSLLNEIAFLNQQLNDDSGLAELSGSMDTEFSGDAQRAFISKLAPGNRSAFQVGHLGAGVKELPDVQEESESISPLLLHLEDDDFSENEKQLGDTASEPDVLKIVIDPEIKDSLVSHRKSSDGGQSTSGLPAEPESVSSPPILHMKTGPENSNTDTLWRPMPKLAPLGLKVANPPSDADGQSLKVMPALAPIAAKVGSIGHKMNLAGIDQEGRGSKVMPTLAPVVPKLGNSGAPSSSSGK
# UniProt A2A791: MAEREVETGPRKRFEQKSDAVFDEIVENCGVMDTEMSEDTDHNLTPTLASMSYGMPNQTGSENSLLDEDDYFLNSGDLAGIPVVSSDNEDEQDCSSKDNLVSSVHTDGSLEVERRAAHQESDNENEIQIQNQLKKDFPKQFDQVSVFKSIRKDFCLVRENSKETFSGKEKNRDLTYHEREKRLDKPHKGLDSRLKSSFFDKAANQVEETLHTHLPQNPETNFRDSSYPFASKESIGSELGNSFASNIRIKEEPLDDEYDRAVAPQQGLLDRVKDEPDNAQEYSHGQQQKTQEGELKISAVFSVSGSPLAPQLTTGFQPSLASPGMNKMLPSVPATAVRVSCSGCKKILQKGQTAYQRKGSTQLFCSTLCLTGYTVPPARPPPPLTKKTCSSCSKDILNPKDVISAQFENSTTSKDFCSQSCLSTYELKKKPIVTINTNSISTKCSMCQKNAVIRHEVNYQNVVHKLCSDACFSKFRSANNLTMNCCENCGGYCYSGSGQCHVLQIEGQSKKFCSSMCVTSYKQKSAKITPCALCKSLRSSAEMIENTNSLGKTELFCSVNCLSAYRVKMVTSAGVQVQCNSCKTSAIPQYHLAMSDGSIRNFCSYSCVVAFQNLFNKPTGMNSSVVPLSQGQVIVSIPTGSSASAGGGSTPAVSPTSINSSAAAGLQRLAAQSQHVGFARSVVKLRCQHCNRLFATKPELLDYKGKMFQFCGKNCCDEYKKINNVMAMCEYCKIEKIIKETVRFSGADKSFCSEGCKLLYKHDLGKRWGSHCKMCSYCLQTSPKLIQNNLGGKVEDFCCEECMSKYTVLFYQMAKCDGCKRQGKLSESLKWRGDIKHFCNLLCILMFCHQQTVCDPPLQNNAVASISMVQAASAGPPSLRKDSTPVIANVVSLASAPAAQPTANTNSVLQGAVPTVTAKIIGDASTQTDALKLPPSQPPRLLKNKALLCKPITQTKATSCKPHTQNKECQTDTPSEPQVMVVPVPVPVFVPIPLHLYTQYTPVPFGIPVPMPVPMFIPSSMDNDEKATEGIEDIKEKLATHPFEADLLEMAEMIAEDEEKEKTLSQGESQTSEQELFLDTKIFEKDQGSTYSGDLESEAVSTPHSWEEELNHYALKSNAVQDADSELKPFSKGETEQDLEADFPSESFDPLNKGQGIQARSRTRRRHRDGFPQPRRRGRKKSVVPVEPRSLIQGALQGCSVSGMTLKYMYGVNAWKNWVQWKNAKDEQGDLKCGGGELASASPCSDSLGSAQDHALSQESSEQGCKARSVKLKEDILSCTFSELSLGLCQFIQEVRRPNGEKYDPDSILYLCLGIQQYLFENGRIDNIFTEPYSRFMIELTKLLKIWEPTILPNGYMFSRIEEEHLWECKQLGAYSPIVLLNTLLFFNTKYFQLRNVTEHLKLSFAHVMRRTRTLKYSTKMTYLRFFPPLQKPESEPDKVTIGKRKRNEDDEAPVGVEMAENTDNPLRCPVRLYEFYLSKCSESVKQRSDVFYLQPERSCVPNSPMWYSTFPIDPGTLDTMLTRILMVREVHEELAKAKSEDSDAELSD
# UniProt B2RRF6: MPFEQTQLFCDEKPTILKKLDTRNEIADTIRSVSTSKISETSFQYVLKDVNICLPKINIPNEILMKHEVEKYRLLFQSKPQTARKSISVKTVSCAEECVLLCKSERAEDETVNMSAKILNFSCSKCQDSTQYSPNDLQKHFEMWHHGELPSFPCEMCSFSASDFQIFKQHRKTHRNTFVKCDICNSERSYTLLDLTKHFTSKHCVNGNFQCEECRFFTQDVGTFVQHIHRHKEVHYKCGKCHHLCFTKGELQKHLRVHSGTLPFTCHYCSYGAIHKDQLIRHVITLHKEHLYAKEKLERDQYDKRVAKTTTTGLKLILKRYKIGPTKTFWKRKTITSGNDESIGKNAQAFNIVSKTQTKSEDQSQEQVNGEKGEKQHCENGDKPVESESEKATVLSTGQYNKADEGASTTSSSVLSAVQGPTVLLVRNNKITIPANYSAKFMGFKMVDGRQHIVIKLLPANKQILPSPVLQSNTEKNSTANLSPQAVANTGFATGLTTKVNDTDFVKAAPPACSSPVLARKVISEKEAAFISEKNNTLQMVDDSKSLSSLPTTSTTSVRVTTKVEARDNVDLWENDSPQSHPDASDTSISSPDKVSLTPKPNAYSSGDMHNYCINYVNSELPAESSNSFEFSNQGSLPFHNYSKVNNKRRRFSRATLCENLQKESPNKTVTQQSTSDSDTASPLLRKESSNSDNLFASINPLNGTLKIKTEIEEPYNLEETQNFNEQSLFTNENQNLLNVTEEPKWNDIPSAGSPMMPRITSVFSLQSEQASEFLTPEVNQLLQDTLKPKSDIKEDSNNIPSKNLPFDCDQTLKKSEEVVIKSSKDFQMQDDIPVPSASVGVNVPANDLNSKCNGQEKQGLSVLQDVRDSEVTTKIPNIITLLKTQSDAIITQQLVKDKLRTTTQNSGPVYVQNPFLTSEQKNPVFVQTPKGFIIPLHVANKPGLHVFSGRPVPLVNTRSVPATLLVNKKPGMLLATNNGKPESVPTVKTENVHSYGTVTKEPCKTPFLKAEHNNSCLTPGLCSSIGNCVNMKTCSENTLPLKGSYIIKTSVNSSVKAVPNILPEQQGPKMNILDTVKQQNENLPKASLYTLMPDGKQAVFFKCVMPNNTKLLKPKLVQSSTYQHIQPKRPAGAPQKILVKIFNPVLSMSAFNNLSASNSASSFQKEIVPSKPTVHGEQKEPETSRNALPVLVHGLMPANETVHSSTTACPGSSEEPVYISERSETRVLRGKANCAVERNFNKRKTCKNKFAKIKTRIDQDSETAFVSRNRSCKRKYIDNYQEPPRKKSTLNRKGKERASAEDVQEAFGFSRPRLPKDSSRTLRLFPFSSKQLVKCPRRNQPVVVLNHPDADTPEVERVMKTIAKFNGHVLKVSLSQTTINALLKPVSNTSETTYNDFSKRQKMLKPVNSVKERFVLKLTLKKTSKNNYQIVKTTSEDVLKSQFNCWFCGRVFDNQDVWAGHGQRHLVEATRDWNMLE
# No constants are given. Whether binding was seen depends on the method and setting. Binding seen in cells or lysates may run through a third protein. Sequences can lack the tags named with a protein.
# Target: T1, 3xFLAG-tagged ATF7IP WT (transiently expressed in HEK293T cells) (mouse) (UniProt Q7TT18)
# T1 sequence: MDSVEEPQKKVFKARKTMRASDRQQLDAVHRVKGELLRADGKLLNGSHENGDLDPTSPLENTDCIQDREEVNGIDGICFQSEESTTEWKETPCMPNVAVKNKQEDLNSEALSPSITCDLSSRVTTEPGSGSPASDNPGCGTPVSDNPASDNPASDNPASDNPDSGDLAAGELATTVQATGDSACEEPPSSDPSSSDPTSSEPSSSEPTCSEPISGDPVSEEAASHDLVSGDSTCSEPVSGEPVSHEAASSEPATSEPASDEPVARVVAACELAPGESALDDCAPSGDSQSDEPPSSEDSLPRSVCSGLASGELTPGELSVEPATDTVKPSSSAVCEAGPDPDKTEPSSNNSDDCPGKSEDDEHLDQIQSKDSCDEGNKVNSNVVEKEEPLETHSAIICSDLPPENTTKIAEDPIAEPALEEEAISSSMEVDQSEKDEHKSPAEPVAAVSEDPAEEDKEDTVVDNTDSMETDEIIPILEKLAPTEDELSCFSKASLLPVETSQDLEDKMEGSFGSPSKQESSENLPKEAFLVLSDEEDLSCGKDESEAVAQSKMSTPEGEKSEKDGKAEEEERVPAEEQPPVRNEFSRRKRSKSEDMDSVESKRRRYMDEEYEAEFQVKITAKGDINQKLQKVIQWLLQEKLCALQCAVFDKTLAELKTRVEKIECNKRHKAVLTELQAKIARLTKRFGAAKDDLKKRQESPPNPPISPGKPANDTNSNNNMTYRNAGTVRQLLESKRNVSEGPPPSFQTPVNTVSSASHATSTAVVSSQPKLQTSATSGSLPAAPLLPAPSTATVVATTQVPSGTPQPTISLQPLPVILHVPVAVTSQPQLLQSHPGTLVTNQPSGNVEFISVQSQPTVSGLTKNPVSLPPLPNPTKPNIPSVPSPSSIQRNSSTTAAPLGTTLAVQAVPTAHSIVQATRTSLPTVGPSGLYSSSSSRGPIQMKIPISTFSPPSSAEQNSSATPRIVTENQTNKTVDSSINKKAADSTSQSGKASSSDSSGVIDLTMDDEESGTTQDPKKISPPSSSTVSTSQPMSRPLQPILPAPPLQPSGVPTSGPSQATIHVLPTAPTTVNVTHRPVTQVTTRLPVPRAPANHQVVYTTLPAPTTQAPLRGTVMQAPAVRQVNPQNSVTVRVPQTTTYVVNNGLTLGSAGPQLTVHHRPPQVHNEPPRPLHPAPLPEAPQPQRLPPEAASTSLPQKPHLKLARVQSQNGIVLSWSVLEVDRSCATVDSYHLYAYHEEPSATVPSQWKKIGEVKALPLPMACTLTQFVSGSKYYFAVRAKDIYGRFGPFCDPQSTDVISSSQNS
# Assay: co-IP; HEK293T cells transiently co-transfected with 3xFLAG-ATF7IP (WT or dFNIII) and V5-tagged proteins; precipitated with anti-FLAG M2 affinity gel, 4 °C; western blot; which lysis buffer was used is not said
row,binding,Substance
1,no binding,MGA C-terminus (residues 2362-3003) with mutations at the FAM (from UniProt A2AWL7) (domain or fragment)
2,no binding,ZMYM4 with mutations at the FAM (from UniProt A2A791)
3,no binding,ZFP518A with mutations at the FAM (from UniProt B2RRF6)
